Assay results as given in PubChem BioAssay AID2685 (National Center for Advancing Translational Sciences (NCATS), 2010).
The list shows a part of the results. Further columns of the screen follow, without active or inactive calls. Compounds called inactive in the main read-out are mostly missing here. The note in brackets gives the kind of curve behind each potency; many fits are weak.

Test: qHTS Assay for Lipid Storage Modulators in Drosophila S3 Cells;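 for cell number change: cells counted by Cell Tracker Red CMTPX staining in the red channel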
Conditions: BODIPY lipid droplet fluorescence, 18-24 h; for cell number change: measured here: cell count max response, cells fed with added oleic acid
Summary of the method: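 Drosophila S3 cells loaded with oleic acid (400 uM, as added) and compounds at several concentrations; lipid droplets imaged by 488-nm laser-scanning cytometry, 500–530 nm intensity and object ratio to cell channel. Percent activity normalized to 20 uM Triacsin C.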

[1] = measured here: lipid fluorescence (Fed channel) AC50, cells fed with added oleic acid
[2] = measured here: cell number channel AC50, cells fed with added oleic acid

Structure (SMILES)	cell number change [%]	AC50 [1]	AC50 [2]
Cc1ccc(-n2nc3cc(Cl)c(NC(=O)c4ccco4)cc3n2)cc1	12.1	6.51 µM [rising, partial curve, poor fit]	–
CC(c1ccco1)N(C(=O)COc1ccc(Cl)cc1)c1ccccn1 (configuration not stated)	6.25	–	–
CC1CCCCN1CC(=O)c1c(N)n(Cc2ccccc2)c(=O)n(C)c1=O (configuration not stated)	-49.5	1.46 µM [falling, partial curve]	6.51 µM [rising, single point]
O=C(NCCc1ccccc1F)C1CC(O)CN1C(=O)Nc1ccccc1 (configuration not stated)	14	29.1 µM [rising, single point]	–
N=C1C(c2ccccc2)=C(O)CN1c1cccc(S(=O)(=O)Nc2cccc(C(F)(F)F)c2)c1	44.1	0.731 µM [rising, partial curve, poor fit]	0.92 µM [rising, full curve]
CC(C)CCn1c(N)c(S(=O)(=O)c2cccs2)c2nc3ccccc3nc21	-129	29.1 µM [falling, single point]	29.1 µM [falling, single point]
CCOC(=O)C1=C(C)NC(=O)NC1c1ccc(N(C)C)cc1 (configuration not stated)	-8.82	6.51 µM [falling, single point]	6.51 µM [falling, single point]
COc1cccc(/C=C/C(=O)NCc2ccc(S(N)(=O)=O)cc2)c1	18.9	3.66 µM [falling, single point]	–
CCOc1c(/C=C(\C#N)C(N)=O)c2ccccc2n1CC	24.1	3.66 µM [falling, single point]	4.61 µM [rising, full curve, poor fit]
COC(=O)C1=C(C)Nc2nnnn2C1c1ccc(Cl)cc1Cl (configuration not stated)	–	–	6.51 µM [rising, single point]
CCOC(=O)c1cccc(N2C(=O)C3C(C2=O)C2C=CC3C23CC3)c1 (configuration not stated)	16.9	13 µM [falling, partial curve]	–
COc1cc(CNCc2ccccc2)cc(Cl)c1OC	-17.8	29.1 µM [falling, single point]	–
CCOC(=O)CNC(=S)N(CCCN1CCN(C)CC1)Cc1cccs1	51.1	6.51 µM [rising, single point]	29.1 µM [rising, single point]
Cc1cc(CN2CCCC(C(=O)Nc3cccc(-n4cccn4)c3)C2)cc(C)c1O (configuration not stated)	5.61	–	6.51 µM [rising, single point]
CC(=O)c1ccc(N2CCN(c3ccc(S(=O)(=O)NCCCN(C)C)cc3[N+](=O)[O-])CC2)cc1	-41.5	23.1 µM [falling, partial curve]	–
O=C(Oc1ccccc1C(=O)Oc1ccccc1)c1ccco1	–	6.51 µM [rising, single point]	–
CCCn1ncc(CN2CCC(Oc3ccc(C(=O)N4CCCC4)cc3)CC2)c1C	–	0.731 µM [rising, single point]	–
Cc1cccc(OCC(=O)NCC(c2cccs2)N2CCOCC2)c1 (configuration not stated)	–	6.51 µM [falling, single point]	0.103 µM [falling, full curve, poor fit]
Cc1ccc(CNS(=O)(=O)c2ccc(F)c(F)c2)n1C	1.32	–	–

A few values from the results shown:
For cell number change [%], Cc1ccc(CNS(=O)(=O)c2ccc(F)c(F)c2)n1C has the entry 1.32
For cell number change [%], CC(=O)c1ccc(N2CCN(c3ccc(S(=O)(=O)NCCCN(C)C)cc3[N+](=O)[O-])CC2)cc1 has the entry -41.5
For AC50 [1], CCOC(=O)c1cccc(N2C(=O)C3C(C2=O)C2C=CC3C23CC3)c1 (configuration not stated) has the entry 13 µM [falling, partial curve]

Further entries.

Structure (SMILES)	cell number change [%]	AC50 [1]	AC50 [2]
O=C(CN1C(=O)c2ccccc2S1(=O)=O)NCc1c(F)cccc1F	-29.3	–	–
CCOC(=O)C1CCN(C(=O)COC(=O)c2cc([N+](=O)[O-])ccc2N2CCOCC2)CC1	1.68	–	–
O=C1C(Cl)=C(NC(=O)c2ccccc2)C(=O)C(Cl)=C1NC(=O)c1ccccc1	-65.6	2.06 µM [falling, full curve]	2.31 µM [falling, full curve]
COc1ccccc1N1CCN(S(=O)(=O)c2c(C)[nH]c(=O)[nH]c2=O)CC1	–	0.164 µM [rising, full curve, poor fit]	–
COc1ccc(C=O)cc1CN1C(=O)c2ccccc2C1=O	19.3	0.58 µM [rising, single point]	–
CCN1CCN(C(=O)c2cc(-c3cccnc3)nc3ccc(Br)cc23)CC1	-5.68	–	–
O=C1CC(N2CCOCC2)C(=O)N1CCN1C(=O)CC(N2CCOCC2)C1=O (configuration not stated)	-7.63	–	–
COC(=O)c1c(C(=O)OC)c(-c2ccc(Cl)c(Cl)c2)n2c1CCC2	-11.6	–	3.66 µM [falling, partial curve, poor fit]
O=C(NC(=S)Nc1cccnc1Cl)c1ccco1	-1.17	–	2.91 µM [rising, partial curve]
COCCN(CCOC)S(=O)(=O)c1ccc(C(=O)Nc2nnc(COC)o2)cc1	-35.4	0.116 µM [falling, partial curve, poor fit]	1.64 µM [falling, full curve, poor fit]
Cc1ccc(Nc2nc3c([nH]2)c(=O)[nH]c(=O)n3C)cc1	–	4.11 µM [rising, single point]	–
CC(Sc1nnc(N)s1)C(=O)NC1CCCCC1C (configuration not stated)	30.6	–	18.4 µM [rising, single point]
Cc1nnn(C23CC4CC(CC(CC(=O)Nc5cccc(F)c5)(C4)C2)C3)n1	49.4	6.51 µM [rising, single point]	6.51 µM [rising, single point]
Cc1ccc(N2C(=O)CC(n3ccnc3)C2=O)cc1C (configuration not stated)	42.8	–	29.1 µM [rising, single point]
Cc1oc2c(C)c3oc(=O)c4c(c3cc2c1C)CCCC4	-2.56	5.17 µM [rising, full curve]	–
O=C(CSCc1ccc(F)cc1)N1CCN(c2ccccc2)CC1	10.9	0.82 µM [rising, full curve, poor fit]	–
Cc1csc(SCC(=O)c2cc(C)n(Cc3cccs3)c2C)n1	-25.5	32.6 µM [falling, single point]	–
Cc1cc(NC(=O)C(C)SCC(=O)Nc2ccccc2N2CCCCC2)no1 (configuration not stated)	6.5	–	–
NC(=O)C(=O)N/N=C1\CCc2ccccc21	–	–	0.651 µM [rising, single point]
